This is an account of results in paper doi:10.1101/2020.06.16.155333.

No constants are given. Whether binding was seen depends on the method and setting. Binding seen in cells or lysates may run through a third protein. A result given as binding can be weak or reduced; the word gives no strength. Sequences can lack the tags named with a protein.

Test [1] has as its target T1, Polo.Flag (Drosophila) (UniProt P52304).
T1 sequence: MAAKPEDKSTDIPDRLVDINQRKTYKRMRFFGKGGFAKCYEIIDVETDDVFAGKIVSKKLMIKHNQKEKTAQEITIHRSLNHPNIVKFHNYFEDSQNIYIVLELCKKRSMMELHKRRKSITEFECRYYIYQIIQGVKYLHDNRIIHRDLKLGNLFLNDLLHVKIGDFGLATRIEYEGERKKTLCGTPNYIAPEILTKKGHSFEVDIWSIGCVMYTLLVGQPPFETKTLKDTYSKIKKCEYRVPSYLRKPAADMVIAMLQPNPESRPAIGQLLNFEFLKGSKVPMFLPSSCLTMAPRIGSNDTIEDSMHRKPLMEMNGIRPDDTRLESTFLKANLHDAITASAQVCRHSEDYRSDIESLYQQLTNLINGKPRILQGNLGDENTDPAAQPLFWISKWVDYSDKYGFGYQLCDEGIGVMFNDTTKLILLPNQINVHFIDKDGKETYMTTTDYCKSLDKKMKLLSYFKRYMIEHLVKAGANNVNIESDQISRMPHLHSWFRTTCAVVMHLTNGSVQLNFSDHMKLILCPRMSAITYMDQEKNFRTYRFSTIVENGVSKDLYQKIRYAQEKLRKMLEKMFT
Kind of test: co-IP.

Test [2] has as its target Bsd.Myc (Drosophila). The experiment in a line: co-IP.

For the molecule Bsd.Myc (Drosophila), in test [1], the binding result was “binds”.

B1: Yp3, Flag-HA C-terminal fusion (FMO11010) (protein, UniProt P06607 20-420)
chain: SKDASNDRLKPTKWLTATELENVPSLNDITWERLENQPLEQGAKVIEKIYHVGQIKHDLTPSFVPSPSNVPVWIIKSNGQKVECKLNNYVETAKAQPGFGEDEVTIVLTGLPKTSPAQQKAMRRLIQAYVQKYNLQQLQKNAQEQQQQLKSSDYDYTSSEEAADQWKSAKAASGDLIIIDLGSTLTNFKRYAMLDVLNTGAMIGQTLIDLTNKGVPQEIIHLIGQGISAHVAGAAGNKYTAQTGHKLRRITGLDPAKVLSKRPQILGGLSRGDADFVDAIHTSTFAMGTPIRCGDVDFYPNGPSTGVPGSENVIEAVARATRYFAESVRPGSERNFPAVPANSLKQYKEQDGFGKRAYMGLQIDYDLRGDYILEVNAKSPFGQRSPAHKQAAYHGMHHAQN
B1: the binding result in test [2] is reported as “binds weakly”.

B2: Jaguar (Jar), Flag-HA C-terminal fusion (FMO12286) (protein, UniProt Q01989 1-1253)
chain: MLEDTQLVWVRDAAEGYIQGRITEIGAKEFEVTPTDRKYPKRTCHFDDIHSSCDGPQDHDDNCELMLLNEATFLDNLKTRYYKDKIYTYVANILIAVNPYREIKELYAPDTIKKYNGRSLGELPPHVFAIADKAIRDMRVYKLSQSIIVSGESGAGKTESTKYLLKYLCYSHDSAGPIETKILDANPVLEAFGNAKTTRNNNSSRFGKFIEVHYDAKCQVVGGYISHYLLEKSRICTQSAEERNYHVFYMLLAGAPQQLRDKLSLGKPDDYRYLSGCTQYFANAKTEQLIPGSQKSKNHQQKGPLKDPIIDDYQHFHNLDKALGRLGLSDTEKLGIYSLVAAVLHLGNIAFEEIPDDVRGGCQVSEASEQSLTITSGLLGVDQTELRTALVSRVMQSKGGGFKGTVIMVPLKIYEASNARDALAKAIYSRLFDRIVGLINQSIPFQASNFYIGVLDIAGFEYFTVNSFEQFCINYCNEKLQKFFNDNILKNEQELYKREGLNVPEITFTDNQDIIELIEAKSNGIFTLLDEESKLPKPSYSHFTAEVHKSWANHYRLGLPRSSRLKAHRTLRDEEGFLVRHFAGAVCYNTEQFIEKNNDALHASLEGLVQECDNPLLQTLFPSGSSTSVRGKLNFISVGSKFKTQLGELMEKLEQNGTNFIRCIKPNSKMIDRQFEGSLALAQLKCSGTISVLELMEHGYPSRVLFADLYSMYKSVLPPELVSLPARTFCEAMFQSLNLSAKDFKFGITKVFFRPGKFVEFDRIMRSDPENMLAIVAKVKKWLIRSRWVKSALGALCVIKLRNRIIYRNKCVLIAQRIARGFLARKQHRPRYQGIGKINKIRTNTLKTIEIASGLKMGREEIISGVNDIYRQIDDAIKKIKMNPRITQREMDSMYTVVMANMNKLTVDLNTKLKEQQQAEEQERLRKIQEALEAERAAKEAEEQRQREEIENKRLKAEMETRRKAAEAQRLRQEEEDRRAALALQEQLEKEAKDDAKYRQQLEQERRDHELALRLANESNGQVEDSPPVIRNGVNDASPMGPNKLIRSENVRAQQQALGKQKYDLSKWKYSELRDAINTSCDIELLEACRQEFHRRLKVYHAWKAKNRKRTTMDENERAPRSVMEAAFKQPPLVQPIQEIVTAQHRYFRIPFMRANAPDNTKRGLWYAHFDGQWIARQMELHADKPPILLVAGTDDMQMCELSLEETGLTRKRGAEILEHEFNREWERNGGKAYKNLGAAKPNGPAAAMQKQQ
Turning to B2, in test [2], the binding entry was “binds weakly”.
